Structures can show the parent of a compound that is named as a salt.

In one series the test system is human washed platelets. Description: Small-molecule loading of human washed platelets by passive diffusion. Format: cell-based. The note with it: 100 μM. As to the method: 100 μM of Doxorubicin was used with a preparation of 1e7 platelets in 1 ml of buffer and incubated at ambient temperature for 30, 120, 240, and 1440 minutes under constant agitation on an orbital shaker in a dialysis cassette (Thermofisher #88400). […] A kinetic study was employed to understand the minimum and maximum amount of time necessary for doxorubicin encapsulation in the washed platelets.

Series [1] relates to human iPSC-derived platelets. The series can be described thus: Passive loading of Ipilimumab into human iPSC-derived platelets. It is filed as cell-based.
Series [2] relates to CD34+ mobilized peripheral blood-derived platelets. Description: Passive loading of Cy5.5 Ipilimumab into CD34+ mobilized peripheral blood-derived platelets. It is filed as cell-based, human.
For series [3], the system named is human iPSC-derived platelets. Description: Covalent conjugation of Ipilimumab to human iPSC-derived platelets. Format: cell-based.
The test system of series [4] is donor-derived, human washed platelets. Description: Passive loading of antibody into donor-derived, human washed platelets (flow cytometry, immunofluorescence). It is filed as cell-based. In general terms: Flow cytometry measures light scatter and fluorescence of single cells or particles in a stream.
For series [5], the system named is iPSC-derived megakaryocytes and platelets. The series can be described thus: Passive loading of Dylight 488-labeled Atezolizumab into iPSC-derived megakaryocytes. It is filed as cell-based, human.

Consider `COc1cccc2c1C(=O)c1c(O)c3c(c(O)c1C2=O)C[C@@](O)(C(=O)CO)C[C@@H]3O[C@H]1C[C@H](N)[C@H](O)[C@H](C)O1` [doxorubicin, Doxorubicin hydrochloride], for which the “doxorubicin signal after 1440 minutes” value in the series with human washed platelets was “signal retained”.

As for Ipilimumab, in series [1] (100 μg/ml, not conjugated to Cy5.5), the “localization of Ipilimumab (immunofluorescence, CD61 and PF4)” value was “on the cell surface and within select alpha granules”. Besides, in series [1] (1, 10, 30, 60 μg per 1e6 platelets in 100 microliter, 37° C. 1 hour, washed), the “dose dependence of Ipilimumab encapsulation (flow cytometry)” value is recorded as “dose-dependent increase in Ipilimumab encapsulation”. Also, the “drug signal localization (immunofluorescence, PF4 and CD61)” value in series [2] is listed as “punctate within the cell”. The “dose dependence of Cy5.5 conjugated Ipilimumab bound to platelets” value in series [2] (flow cytometry histogram) is “dose-dependent increase”. In series [2] (pg of Ipilimumab per platelet in the reaction vessel), the “input ratio sufficient to see a maximal signal by flow cytometry” value is listed as 100-300 pg/plt. In addition, the “maximal signal at varying concentrations” value in series [2] (up to 600 μg/ml Ipilimumab) is “without a maximal signal established”. Further, the “localization of conjugated Ipilimumab (CD61 and PF4 staining)” value in series [3] was “conjugated mostly on the cell surface”.

As to atezolizumab, the “localization of antibody in platelets (confocal microscopy)” value in series [4] (AlexaFluor 488 anti-human IgG, CD61-APC) was “sub-cellular localization within the platelets”. Further, the “dose dependence of antibody uptake (fluorescence intensity by flow cytometry)” value in series [4] (fluorophore-labeled antibody, dose titer, co-incubation with platelet suspension) is listed as “dose-dependent escalation in antibody loading”. The “uptake of labeled anti-PD-L1 antibody by platelets” value in series [4] (human donor platelets) is recorded as “up to 200 μg”. The “plateau or maximum dose of uptake” value in series [4] (up to 200 μg) was “did not exhibit a plateau or maximum dose of uptake”. Also, the “uptake of atezolizumab by megakaryocytes and static generated platelets” value in series [5] (30 minutes incubation) is recorded as “capable of uptake”. Moreover, in series [5] (PF4 stain), the “localization of Atezolizumab in megakaryocytes” value is on record as “colocalize with the alpha granule stain PF4”.

For the origin of these results see patent US12403161B2, “Compositions for drug delivery and methods of use thereof” (Stellular Bio, Inc., priority 2018, dated 2025).
